Results published in PubChem BioAssay AID248 (DTP/NCI, 2004).
The list shows only some results of the screen, not a fair sample: it is rich in T/C values a quarter to a half above the control, in often repeated tests (any T/C) and in doses without a T/C. Other doses and runs of a compound stand elsewhere. T/C gives the treated animals as a percentage of the vehicle group. Some doses have a count of surviving animals in place of a T/C: the source files T/C as zero there, which appears to mark a toxic dose or a test without result, not a measured value. Some doses without a T/C left all or most animals alive at the check, yet need not have been tolerated: the source hardly ever lists a survival T/C far under the control, and the zero likely stands for such cases as well. Counts of survivors are from the toxicity check (mostly the fifth day) where no day follows; animals may have died later. Schedules are NCI's codes, taken here to give the interval after Q, in days (D) or hours (H), and the number of doses after X. Some schedules carry Z or #; the key to these is not given. For survival time, this PubChem deposit counts one and a half times the control or more as active, and values a quarter to a half above the control carry no call in these data; other NCI protocols may use other cut-offs.

Tested on: L1210 leukemia ip in BDF1 mice, survival T/C
Assay: NCI In Vivo Anticancer Drug Screen. Data for tumor model L1210 Leukemia (intraperitoneal) in B6D2F1 (BDF1) mice
Details: T/C endpoint: mean survival time, higher T/C = longer survival
[1] = dose: 200.0 mg/kg/injection, schedule: Q04DX003 (ip), vehicle: saline with Tween-80
[2] = dose: 400.0 mg/kg/injection, schedule: Q04DX003 (ip), vehicle: saline with Tween-80

CC1C(c2ccccc2)N1P(I)(c1ccccc1)(c1ccccc1)c1ccccc1 (configuration not stated)
survivor count (dose: 30.0 mg/kg/injection, schedule: Q01DX001 (ip), vehicle: carboxymethylcellulose (CMC)): 3 of 6 | survivor count (dose: 60.0 mg/kg/injection, schedule: Q01DX001 (ip), vehicle: carboxymethylcellulose (CMC)): 3 of 6 | survivor count (dose: 75.0 mg/kg/injection, schedule: Q01DX001 (ip), vehicle: carboxymethylcellulose (CMC)): 1 of 6 | survivor count (dose: 150.0 mg/kg/injection, schedule: Q01DX001 (ip), vehicle: carboxymethylcellulose (CMC)): 0 of 6 | survivor count (dose: 300.0 mg/kg/injection, schedule: Q01DX001 (ip), vehicle: carboxymethylcellulose (CMC)): 0 of 6

COC(=O)/C(=C\c1ccc([N+](=O)[O-])s1)C(C)=O
survivor count (dose: 25.0 mg/kg/injection, schedule: Q01DX005 (ip), vehicle: saline with Tween-80): 4 of 4 | survivor count (dose: 50.0 mg/kg/injection, schedule: Q01DX005 (ip), vehicle: saline with Tween-80): 3 of 4

CC1CC(C)(C)N/C(=C/C(=O)N2Cc3cc4ccccc4nc3C2)O1 (configuration not stated)
survivor count (dose: 200.0 mg/kg/injection, schedule: Q01DX001 (ip), vehicle: Klucel (hydroxypropylcellulose) (HPC)): 6 of 6

N/C(=N\Cl)C(Cl)(Cl)Cl
survivor count (dose: 100.0 mg/kg/injection, schedule: Q04DX003 (ip), vehicle: saline with Tween-80): 5 of 6 | survivor count [1]: 0 of 6 | survivor count [2]: 0 of 6

CNC(=N)c1ccc(NC(=N)c2ccc(NC(=O)c3ccc(C(=O)Nc4ccc(C(=N)Nc5ccc(C(=N)NC)cc5)cc4)cc3)cc2)cc1
T/C (dose: 12.5 mg/kg/injection, schedule: Q01DX Z (ip), vehicle: carboxymethylcellulose (CMC)): 138 % of control | T/C (dose: 25.0 mg/kg/injection, schedule: Q01DX Z (ip), vehicle: carboxymethylcellulose (CMC)): 130 % of control | T/C (dose: 50.0 mg/kg/injection, schedule: Q01DX Z (ip), vehicle: carboxymethylcellulose (CMC)): 130 % of control | T/C (dose: 62.0 mg/kg/injection, schedule: Q01DX Z (ip), vehicle: carboxymethylcellulose (CMC)): 130 % of control | T/C (dose: 125.0 mg/kg/injection, schedule: Q01DX Z (ip), vehicle: carboxymethylcellulose (CMC)): 125 % of control | T/C (dose: 250.0 mg/kg/injection, schedule: Q01DX Z (ip), vehicle: carboxymethylcellulose (CMC)): 141 % of control | T/C (dose: 300.0 mg/kg/injection, schedule: Q01DX Z (ip), vehicle: carboxymethylcellulose (CMC)): 130 % of control | survivor count (dose: 500.0 mg/kg/injection, schedule: Q01DX Z (ip), vehicle: carboxymethylcellulose (CMC)): 2 of 6

O=S(=O)([O-])[O-].[Cu+2].[OH2+]CC[N-]CC[OH2+].[OH2+]CC[N-]CC[OH2+]
survivor count (dose: 50.0 mg/kg/injection, schedule: Q01DX001 (ip), vehicle: carboxymethylcellulose (CMC)): 1 of 4 | survivor count (dose: 100.0 mg/kg/injection, schedule: Q01DX001 (ip), vehicle: carboxymethylcellulose (CMC)): 0 of 4 | survivor count (dose: 200.0 mg/kg/injection, schedule: Q01DX001 (ip), vehicle: carboxymethylcellulose (CMC)): 0 of 4 | survivor count (dose: 400.0 mg/kg/injection, schedule: Q01DX001 (ip), vehicle: carboxymethylcellulose (CMC)): 0 of 4

C[C@@H]1CCC([C@@H](C)[C@H]2CC[C@H]3[C@@H]4CC[C@H]5C[C@@H](O)CC[C@]5(C)[C@H]4CC[C@]23C)=NC1
survivor count (dose: 250.0 mg/kg/injection, schedule: Q01DX001 (ip), vehicle: saline): 0 of 4 | survivor count (dose: 500.0 mg/kg/injection, schedule: Q01DX001 (ip), vehicle: saline): 0 of 4

CC1(C)N=C(N)N=C(N)N1c1ccc2c(Cl)c(Cl)ccc2c1
survivor count [1]: 1 of 6 | survivor count [2]: 0 of 6

NC(CCl)=NC1CC1
survivor count (dose: 100.0 mg/kg/injection, schedule: Q04DX002 (ip), vehicle: saline): 0 of 3 | survivor count (dose: 200.0 mg/kg/injection, schedule: Q04DX002 (ip), vehicle: saline): 0 of 3 | survivor count (dose: 400.0 mg/kg/injection, schedule: Q04DX002 (ip), vehicle: saline): 0 of 3

Cc1ccccc1[P+](Cc1ccccc1)(c1ccccc1)c1ccccc1
survivor count (dose: 40.0 mg/kg/injection, schedule: Q01DX001 (ip), vehicle: saline): 0 of 6 | survivor count (dose: 80.0 mg/kg/injection, schedule: Q01DX001 (ip), vehicle: saline): 0 of 6
